Measured values: paper PMC10739811
These are yes or no findings as the source states them, for the method shown. Binding seen in cells or lysates may run through a third protein. Some entries that bind do so weakly or less than the wild type. For part of these data: Tags and fused reporters may be left off the sequences shown.

Chains of the proteins cited; added tags and fusions are not shown.
UniProt P97302: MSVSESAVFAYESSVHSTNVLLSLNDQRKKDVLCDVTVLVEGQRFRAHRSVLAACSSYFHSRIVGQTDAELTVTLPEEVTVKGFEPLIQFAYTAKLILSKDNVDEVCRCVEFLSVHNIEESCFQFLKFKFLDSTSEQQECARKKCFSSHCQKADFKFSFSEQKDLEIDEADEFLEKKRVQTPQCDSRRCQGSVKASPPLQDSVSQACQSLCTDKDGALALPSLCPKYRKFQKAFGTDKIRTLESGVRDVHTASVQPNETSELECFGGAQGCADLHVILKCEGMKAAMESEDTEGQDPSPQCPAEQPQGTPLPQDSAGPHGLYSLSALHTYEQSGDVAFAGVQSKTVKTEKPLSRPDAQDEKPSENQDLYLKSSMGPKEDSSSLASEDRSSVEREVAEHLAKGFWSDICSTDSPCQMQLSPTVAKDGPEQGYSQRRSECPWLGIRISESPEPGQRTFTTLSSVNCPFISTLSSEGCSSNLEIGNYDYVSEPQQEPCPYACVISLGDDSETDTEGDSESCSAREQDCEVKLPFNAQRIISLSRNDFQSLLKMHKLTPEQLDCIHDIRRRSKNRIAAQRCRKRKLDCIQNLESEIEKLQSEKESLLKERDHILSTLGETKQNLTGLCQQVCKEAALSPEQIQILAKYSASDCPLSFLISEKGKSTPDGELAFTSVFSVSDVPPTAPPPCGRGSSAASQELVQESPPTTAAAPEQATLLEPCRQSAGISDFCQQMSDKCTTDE
UniProt O14867: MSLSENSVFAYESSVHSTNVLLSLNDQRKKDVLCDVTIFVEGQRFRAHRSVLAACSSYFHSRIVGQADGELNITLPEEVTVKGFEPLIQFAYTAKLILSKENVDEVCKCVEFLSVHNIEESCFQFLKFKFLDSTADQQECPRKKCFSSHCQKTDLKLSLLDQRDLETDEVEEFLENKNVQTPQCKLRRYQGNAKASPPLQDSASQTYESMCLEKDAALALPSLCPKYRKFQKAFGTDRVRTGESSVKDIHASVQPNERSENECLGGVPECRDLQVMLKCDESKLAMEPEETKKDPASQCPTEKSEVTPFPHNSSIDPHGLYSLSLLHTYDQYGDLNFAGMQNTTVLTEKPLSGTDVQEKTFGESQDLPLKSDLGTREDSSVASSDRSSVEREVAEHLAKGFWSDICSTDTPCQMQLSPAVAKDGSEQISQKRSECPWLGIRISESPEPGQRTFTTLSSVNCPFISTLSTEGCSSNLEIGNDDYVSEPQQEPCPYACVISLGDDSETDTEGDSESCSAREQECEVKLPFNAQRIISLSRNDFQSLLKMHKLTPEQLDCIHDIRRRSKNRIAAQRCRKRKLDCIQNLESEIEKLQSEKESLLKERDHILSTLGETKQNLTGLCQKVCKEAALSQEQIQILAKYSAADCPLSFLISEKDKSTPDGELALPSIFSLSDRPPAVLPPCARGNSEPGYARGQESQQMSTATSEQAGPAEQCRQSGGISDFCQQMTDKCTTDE

Assays:
[1] = molecular target: BTB and CNC homology 1 (BACH1), endogenous mouse (mouse (endogenous in primary hepatocytes)) (UniProt P97302); test: co-IP; lysate of mouse primary hepatocytes precipitated with anti-BACH1 antibody or control mouse IgG; blots for IR-β, PTP1B, PTEN, PP2A and BACH1; endogenous proteins
[2] = molecular target: Flag-tagged full-length human BACH1 (human) (UniProt O14867); test: co-IP; HEK293T cells co-transfected with PTP1B-HA or IR-β-GFP and Flag-tagged BACH1 (full or lacking the BTB domain); precipitated with anti-Flag, blot with anti-HA or anti-GFP
[3] = molecular target: GST-tagged BACH1 protein (GST-BACH1) (not stated (human or mouse cDNA cloned)) (UniProt O14867); test: pull-down; GST-BACH1 on glutathione-Sepharose 4B incubated for 2 h at 4 °C with IR-β-GFP or PTP1B-HA from transfected HEK293T cells (lysate by the legend and results; 'purified' by the methods), three washes, blot; only the target purified

B1: protein tyrosine phosphatase 1B (PTP1B), endogenous mouse (enzyme, UniProt P35821 1-432)
chain: MEMEKEFEEIDKAGNWAAIYQDIRHEASDFPCKVAKLPKNKNRNRYRDVSPFDHSRIKLHQEDNDYINASLIKMEEAQRSYILTQGPLPNTCGHFWEMVWEQKSRGVVMLNRIMEKGSLKCAQYWPQQEEKEMVFDDTGLKLTLISEDVKSYYTVRQLELENLTTKETREILHFHYTTWPDFGVPESPASFLNFLFKVRESGSLSLEHGPIVVHCSAGIGRSGTFCLADTCLLLMDKRKDPSSVDIKKVLLEMRRFRMGLIQTADQLRFSYLAVIEGAKFIMGDSSVQDQWKELSREDLDLPPEHVPPPPRPPKRTLEPHNGKCKELFSSHQWVSEETCGDEDSLAREEGRAQSSAMHSVSSMSPDTEVRRRMVGGGLQSAQASVPTEEELSSTEEEHKAHWPSHWKPFLVNVCMATLLATGAYLCYRVCFH
[1]
  binding: binds

B2: human PTP1B-HA (enzyme, UniProt P18031 1-435)
chain: MEMEKEFEQIDKSGSWAAIYQDIRHEASDFPCRVAKLPKNKNRNRYRDVSPFDHSRIKLHQEDNDYINASLIKMEEAQRSYILTQGPLPNTCGHFWEMVWEQKSRGVVMLNRVMEKGSLKCAQYWPQKEEKEMIFEDTNLKLTLISEDIKSYYTVRQLELENLTTQETREILHFHYTTWPDFGVPESPASFLNFLFKVRESGSLSPEHGPVVVHCSAGIGRSGTFCLADTCLLLMDKRKDPSSVDIKKVLLEMRKFRMGLIQTADQLRFSYLAVIEGAKFIMGDSSVQDQWKELSHEDLEPPPEHIPPPPRPPKRILEPHNGKCREFFPNHQWVKEETQEDKDCPIKEEKGSPLNAAPYGIESMSQDTEVRSRVVGGSLRGAQAASPAKGEPSLPEKDEDHALSYWKPFLVNMCVATVLTAGAYLCYRFLFNSNT
[2]
  binding: binds
[3]
  binding: binds
